Measured data: PubChem BioAssay AID1224829 (NIAID, 2016)

Purpose: 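Secondary check of hits that alter LPS-induced p65 translocation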 (follow-up of hits)
Cells: mouse RAW264.7 G9 macrophage reporter cells
Reagent: single siRNA against mouse genes, 100 nM
Timing: 2 days of siRNA knock-down, then 40 min of LPS before fixing
Treatment: LPS (Salmonella minnesota R595) at 10 ng/ml
Measured: 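High-content images after 40 min LPS exposure; GFP-p65 nucleus to surrounding ring signal ratio, normalised to plate median and non-targeting control wells, expressed as z-score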
Reading the numbers: p65 translocation z-score: higher = more nuclear NF-kappaB p65 after LPS
Call rule: 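An siRNA is called active when the mean z-score of its two replicates is above 2 or below -2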
Calls: active = changed p65 translocation (either direction); inactive = no clear change
The deposit covers about 3,800 reagents; shown is a part drawn at random. 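Calls cover raised and lowered translocation; gene median uses one vendor's three siRNAs; qiagen siRNAs acted more weakly than ambion siRNAs.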 A number with no mark means an inactive call. The numbers tell different reagents against one gene apart. Further read-outs or replicates are left out here. Reagent sequences are not shown.

Pole3 (polymerase (DNA directed), epsilon 3 (p17 subunit)) #1, siRNA vendor or control pool ambion single siRNA: p65 translocation z-score, replicate mean = 0.48; p65 translocation z-score, replicate 1 = 1.75
Pole3 (polymerase (DNA directed), epsilon 3 (p17 subunit)) #2, siRNA vendor or control pool ambion single siRNA: p65 translocation z-score, replicate mean = -2.13 (active); p65 translocation z-score, replicate 1 = -1.43
Pole3 (polymerase (DNA directed), epsilon 3 (p17 subunit)) #3, siRNA vendor or control pool ambion single siRNA: p65 translocation z-score, replicate mean = -2.46 (active); p65 translocation z-score, replicate 1 = -2.92
Pole3 (polymerase (DNA directed), epsilon 3 (p17 subunit)) #4, siRNA vendor or control pool qiagen single siRNA: p65 translocation z-score, replicate mean = 0.604; p65 translocation z-score, replicate 1 = 0.432
Pole3 (polymerase (DNA directed), epsilon 3 (p17 subunit)) #5, siRNA vendor or control pool qiagen single siRNA: p65 translocation z-score, replicate mean = 1.35; p65 translocation z-score, replicate 1 = -0.988
Pole3 (polymerase (DNA directed), epsilon 3 (p17 subunit)) #6, siRNA vendor or control pool qiagen single siRNA: p65 translocation z-score, replicate mean = -0.546; p65 translocation z-score, replicate 1 = -1.59
Cpeb1 (cytoplasmic polyadenylation element binding protein 1) #1, siRNA vendor or control pool ambion single siRNA: p65 translocation z-score, replicate mean = -2.98 (active); p65 translocation z-score, replicate 1 = -3.92
Cpeb1 (cytoplasmic polyadenylation element binding protein 1) #2, siRNA vendor or control pool ambion single siRNA: p65 translocation z-score, replicate mean = -1.48; p65 translocation z-score, replicate 1 = -0.674
Cpeb1 (cytoplasmic polyadenylation element binding protein 1) #3, siRNA vendor or control pool ambion single siRNA: p65 translocation z-score, replicate mean = -1.43; p65 translocation z-score, replicate 1 = -0.708
Cpeb1 (cytoplasmic polyadenylation element binding protein 1) #4, siRNA vendor or control pool qiagen single siRNA: p65 translocation z-score, replicate mean = -0.997; p65 translocation z-score, replicate 1 = -1.33
Cpeb1 (cytoplasmic polyadenylation element binding protein 1) #5, siRNA vendor or control pool qiagen single siRNA: p65 translocation z-score, replicate mean = 0.0653; p65 translocation z-score, replicate 1 = 0.779
Cpeb1 (cytoplasmic polyadenylation element binding protein 1) #6, siRNA vendor or control pool qiagen single siRNA: p65 translocation z-score, replicate mean = -4.89 (active); p65 translocation z-score, replicate 1 = -3.75

Only “p65 translocation z-score, replicate 1”, for 3 of the entries above:
Pole3 (polymerase (DNA directed), epsilon 3 (p17 subunit)) #4, siRNA vendor or control pool qiagen single siRNA: 0.432
Pole3 (polymerase (DNA directed), epsilon 3 (p17 subunit)) #5, siRNA vendor or control pool qiagen single siRNA: -0.988
Pole3 (polymerase (DNA directed), epsilon 3 (p17 subunit)) #6, siRNA vendor or control pool qiagen single siRNA: -1.59

The list goes on.
Fabp6 (fatty acid binding protein 6) #1, siRNA vendor or control pool ambion single siRNA: p65 translocation z-score, replicate mean = -1.49; p65 translocation z-score, replicate 1 = -2.05
Fabp6 (fatty acid binding protein 6) #2, siRNA vendor or control pool ambion single siRNA: p65 translocation z-score, replicate mean = 1.32; p65 translocation z-score, replicate 1 = 2.69
Fabp6 (fatty acid binding protein 6) #3, siRNA vendor or control pool ambion single siRNA: p65 translocation z-score, replicate mean = -0.976; p65 translocation z-score, replicate 1 = 0.701
Fabp6 (fatty acid binding protein 6) #4, siRNA vendor or control pool qiagen single siRNA: p65 translocation z-score, replicate mean = 1.72; p65 translocation z-score, replicate 1 = 2.12
Fabp6 (fatty acid binding protein 6) #5, siRNA vendor or control pool qiagen single siRNA: p65 translocation z-score, replicate mean = -1.39; p65 translocation z-score, replicate 1 = -1.3
Fabp6 (fatty acid binding protein 6) #6, siRNA vendor or control pool qiagen single siRNA: p65 translocation z-score, replicate mean = -1.46; p65 translocation z-score, replicate 1 = -2.42
Or1e32 (olfactory receptor family 1 subfamily E member 32) #1, siRNA vendor or control pool ambion single siRNA: p65 translocation z-score, replicate mean = 0.539; p65 translocation z-score, replicate 1 = 0.974
Or1e32 (olfactory receptor family 1 subfamily E member 32) #2, siRNA vendor or control pool ambion single siRNA: p65 translocation z-score, replicate mean = -1.6; p65 translocation z-score, replicate 1 = -0.629
Or1e32 (olfactory receptor family 1 subfamily E member 32) #3, siRNA vendor or control pool ambion single siRNA: p65 translocation z-score, replicate mean = -2.11 (active); p65 translocation z-score, replicate 1 = -2.11
Or1e32 (olfactory receptor family 1 subfamily E member 32) #4, siRNA vendor or control pool qiagen single siRNA: p65 translocation z-score, replicate mean = 1.96; p65 translocation z-score, replicate 1 = 1.83
Or1e32 (olfactory receptor family 1 subfamily E member 32) #5, siRNA vendor or control pool qiagen single siRNA: p65 translocation z-score, replicate mean = 1.03; p65 translocation z-score, replicate 1 = -0.709
Or1e32 (olfactory receptor family 1 subfamily E member 32) #6, siRNA vendor or control pool qiagen single siRNA: p65 translocation z-score, replicate mean = 1.42; p65 translocation z-score, replicate 1 = -1.55
